Reference: PMC6794296
Results are given in words; binding and its absence hold for the method and conditions named. Binding seen in cells or lysates may run through a third protein. Binding can be weak; no strength is given. Tags and fused reporters may be left off the sequences shown.

Molecular target: T1, mCherry-tagged phosphatidylinositol 4-phosphate 5-kinase homolog (PIPKH) (human) (UniProt Q5T9C9)
T1 sequence: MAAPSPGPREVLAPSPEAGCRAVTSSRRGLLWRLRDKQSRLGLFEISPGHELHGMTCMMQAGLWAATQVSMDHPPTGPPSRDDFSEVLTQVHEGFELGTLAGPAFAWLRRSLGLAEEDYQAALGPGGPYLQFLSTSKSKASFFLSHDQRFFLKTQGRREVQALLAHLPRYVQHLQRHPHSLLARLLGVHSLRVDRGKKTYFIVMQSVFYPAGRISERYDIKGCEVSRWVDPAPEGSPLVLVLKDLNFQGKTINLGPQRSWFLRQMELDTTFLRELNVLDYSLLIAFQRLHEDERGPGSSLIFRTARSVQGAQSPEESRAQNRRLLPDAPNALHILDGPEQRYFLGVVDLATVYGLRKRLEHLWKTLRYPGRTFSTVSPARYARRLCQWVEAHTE
Assay: FRET or BRET; FLIM-FRET in CHO cells transiently co-transfected; donor GFP or YFP on PIP5K or Rab protein, acceptor mCherry on PIPKH; lifetime of the donor with and without the acceptor

“GFP-PIP5Kγ87 (from UniProt O60331-4) (enzyme)” was tested, and the binding was “binds”.
